# Results are given in words; binding and its absence hold for the method and conditions named. In cells and extracts the contact can be indirect. Some results given as binding are weak or reduced against the parent protein; the word gives no strength. Tags and fused reporters may be left off the sequences shown.
# Amino acid sequences for entries named in this document (tags omitted). A change or cut given only in a name is not applied to a line headed by its entry.
# UniProt P31749: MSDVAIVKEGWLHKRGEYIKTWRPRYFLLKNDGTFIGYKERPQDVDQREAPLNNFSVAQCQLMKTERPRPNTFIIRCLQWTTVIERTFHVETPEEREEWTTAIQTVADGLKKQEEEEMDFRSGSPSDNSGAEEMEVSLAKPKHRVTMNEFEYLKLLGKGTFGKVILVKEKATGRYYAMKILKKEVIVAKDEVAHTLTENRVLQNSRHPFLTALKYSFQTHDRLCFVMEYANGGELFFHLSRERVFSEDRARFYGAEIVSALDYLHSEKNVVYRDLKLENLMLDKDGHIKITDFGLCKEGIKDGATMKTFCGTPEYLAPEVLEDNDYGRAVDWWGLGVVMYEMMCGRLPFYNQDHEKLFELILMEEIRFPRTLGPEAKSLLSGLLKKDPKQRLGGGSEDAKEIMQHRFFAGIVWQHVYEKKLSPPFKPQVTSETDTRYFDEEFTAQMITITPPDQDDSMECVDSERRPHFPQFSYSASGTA
# Assays:
# Test in all cases: pull-down; GST-LASP1 forms (WT, pre-phosphorylated, ΔSH3, ΔLIM) as bait with lysates of HEK-293 cells transfected with AKT1 constructs; AKT1 detected by Western blot; only the target purified
# GST-LASP1-WT (human) = target: T1, GST-LASP1-WT (human) (UniProt Q14847)
# T1 sequence: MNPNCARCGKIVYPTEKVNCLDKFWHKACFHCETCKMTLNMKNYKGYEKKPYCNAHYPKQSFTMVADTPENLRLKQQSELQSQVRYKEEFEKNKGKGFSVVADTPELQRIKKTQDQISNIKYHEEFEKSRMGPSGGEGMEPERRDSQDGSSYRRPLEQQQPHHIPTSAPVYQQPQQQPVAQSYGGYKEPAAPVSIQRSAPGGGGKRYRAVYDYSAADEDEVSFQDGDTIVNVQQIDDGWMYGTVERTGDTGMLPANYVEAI
# [1] = target: T2, GST-LASP1-ΔLIM (aa 64-261) (human) (UniProt Q14847)
# T2 sequence: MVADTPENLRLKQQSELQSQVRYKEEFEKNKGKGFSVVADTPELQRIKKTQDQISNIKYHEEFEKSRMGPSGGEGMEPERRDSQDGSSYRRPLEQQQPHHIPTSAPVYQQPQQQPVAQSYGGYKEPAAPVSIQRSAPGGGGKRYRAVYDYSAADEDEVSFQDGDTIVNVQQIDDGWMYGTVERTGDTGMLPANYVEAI
# [2] = target: T3, GST-LASP1-ΔSH3 (aa 1-190) (human) (UniProt Q14847)
# T3 sequence: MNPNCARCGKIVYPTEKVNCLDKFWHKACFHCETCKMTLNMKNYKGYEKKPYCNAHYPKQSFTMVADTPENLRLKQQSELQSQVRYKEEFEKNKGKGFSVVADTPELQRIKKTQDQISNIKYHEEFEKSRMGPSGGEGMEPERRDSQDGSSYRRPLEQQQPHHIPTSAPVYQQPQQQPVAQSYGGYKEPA
Substance,binding (GST-LASP1-WT (human)),binding [1],binding [2]
HA-AKT1-K426S (from UniProt P31749 1-480),binds,,
HA-AKT1-K420S (from UniProt P31749 1-480),binds,,
"HA-AKT1 full length (AKT1-WT, aa 1-480) (from UniProt P31749 1-480)",,binds,binds
HA-AKT1-R465S (from UniProt P31749 1-480),binds,,

# Reference: paper PMC7072741
